PubChem BioAssay AID1259405 | NCATS – 2018

Purpose: 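Knock-downs that lift recombinant protein yield in hamster ovary cells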 (primary screen)
Cell system: Chinese hamster CHO-K1 ovary cells with stable secreted eGFP expression
Reagent: single siRNA against mouse genes, 0.8 pmol siRNA per well (2 µl of 400 nM stock)
Time to read-out: 3 days
Detection: 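Percent of the per-plate non-targeting control median for intracellular GFP per well by laser scanning cytometry and for cell viability by ATP luminescence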
Reading the numbers: GFP, % of control: higher = more GFP per well, higher productivity; viability (ATP), % of control: higher = more viable cells (more ATP)
Hit rule: 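a knock-down is called active if GFP reaches 120% or more of non-targeting control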
The deposit covers about 50,000 reagents; below is a random part of them. Of all reagents, about 4,000 (8%) were called active. 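Mouse siRNA library applied to hamster cells; one well for each siRNA.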 Entries without a mark were called inactive. The numbers tell different reagents against one gene apart.

no.	target gene	reagent no.	GFP, % of control	viability (ATP), % of control
1	Rrp36	1	45.1	42.1
2	Rrp36	2	73.8	86.4
3	Rrp36	3	105	101
4	Slc22a29	1	54.1	37.9
5	Slc22a29	2	72.4	64.6
6	Slc22a29	3	78.9	68.5
7	Ap5m1	1	93	97.5
8	Ap5m1	2	138 (active)	95.9
9	Ap5m1	3	67.2	76.4
10	Thop1	1	80.8	110
11	Thop1	2	106	105
12	Thop1	3	145 (active)	86.3
13	Hsd17b2	1	99.8	74.1
14	Hsd17b2	2	68.3	25.3
15	Hsd17b2	3	63.1	70.4
16	Zfp933	1	105	94.9
17	Zfp933	2	86.4	104
18	Zfp933	3	102	83.5
19	Sgca	1	77.8	102
20	Sgca	2	79	100
21	Sgca	3	61.6	68
22	Miso1	1	52.3	78.8
23	Miso1	2	55.7	66.9
24	Miso1	3	91.9	95.9
25	Psmg1	1	102	88.1
26	Psmg1	2	86.9	34.5
27	Psmg1	3	247 (active)	79.8
28	Zc3h15	1	98.3	73.8
29	Zc3h15	2	103	89.3
30	Idh1	1	147 (active)	110
31	Idh1	2	50.1	67.3
32	Idh1	3	89.4	89.5
33	Evx2	1	66.1	72
34	Evx2	2	72.4	67.8
35	Evx2	3	106	95.3
36	Pi4kb	1	56.5	85.2
37	Tnfsf13b	1	85.1	90.4
38	Tnfsf13b	2	63.6	72.1
39	Tnfsf13b	3	140 (active)	101
40	Guf1	1	51.8	53.5
41	Guf1	2	47.8	20.1
42	Guf1	3	72.6	76.2
43	Nlrp9b	1	59.1	49.3
44	Nlrp9b	2	68.7	79.9
45	Nlrp9b	3	74.9	64.3
46	Pvr	1	106	73.6
47	Pvr	2	90	68.6
48	Pvr	3	109	95.7
49	Tgif2	1	66.4	97.9
50	Tgif2	2	42.5	63
51	Tgif2	3	72.5	79.4
52	Cyria	1	115	86.3
53	Cyria	2	69	70.9
54	Cyria	3	129 (active)	124
55	Tmc4	1	101	39.5
56	Tmc4	2	57.6	66.3
57	Tmc4	3	63.7	106

Entries above whose target name starts with G or g:
target gene	reagent no.	GFP, % of control	viability (ATP), % of control
Guf1	1	51.8	53.5
Guf1	2	47.8	20.1
Guf1	3	72.6	76.2
